Among the data in PubChem BioAssay AID2685 (National Center for Advancing Translational Sciences (NCATS), 2010) are cell number change and AC50 values, retold here.

This assay is described as follows: qHTS Assay for Lipid Storage Modulators in Drosophila S3 Cells.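 On cell number change: cells counted by Cell Tracker Red CMTPX staining in the red channel.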 To be noted: BODIPY lipid droplet fluorescence, 18-24 h; for cell number change: measured here: cell count max response, cells fed with added oleic acid. The procedure, abridged: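 Laser-scanning cytometry quantifies lipid droplet accumulation (500–530 nm total intensity; droplet/cell object ratio) in oleic acid-fed (400 uM added) Drosophila S3 cells treated with a concentration series. 20 uM Triacsin C defined 100% inhibition.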

The mark [1] stands for this setting: measured here: lipid fluorescence (Fed channel) AC50, cells fed with added oleic acid.
Where [2] appears, read: measured here: cell number channel AC50, cells fed with added oleic acid.

Some of the results follow. The main result of the screen is listed elsewhere. These columns were measured beside it and carry no call. Most of these compounds were active or inconclusive in the main read-out, so they are no random draw. Words in brackets tell the shape of the fitted curve; partial curves, single points and poor fits give uncertain potencies.

As a reminder, the AC50 is the midpoint of the concentration-response curve, whichever way the signal moves. High values mean activity only at high concentration, low ones activity at low concentration. For `CC(=O)Nc1nc(CC(C)C)cc(-c2ccco2)c1C#N`, the cell number change is -1.59%. The AC50 under setting [1] is 7.31 µM [rising, partial curve, poor fit]. With `CCn1c(SCC(=O)Nc2ccc3c(c2)OCO3)nc2c1c(=O)n(C)c(=O)n2C`, the cell number change came out at 30.5%. The AC50 under setting [2] was 0.13 µM [rising, full curve]. Further, under setting [1], the AC50 is 0.411 µM [rising, full curve]. For the compound `O=C(Nc1cc(Cl)ccc1-n1cncn1)C1CC1`, the cell number change was found to be 16.6%. As to `C/C(=N/Oc1nc(C)cc(C)n1)c1ccc(Br)cc1`, the AC50 is 1.3 µM [rising, partial curve] under setting [2] and 1.46 µM [rising, partial curve] under setting [1]. For the compound `COC(=O)C(NC(=O)c1ccccc1C(=O)O)c1ccc2ccccc2c1` (stereo unspecified), the cell number change amounted to 2.49%. The AC50 under setting [1] was 29.1 µM [falling, single point].

As for `CCc1sc(C(=O)NCCCn2ccnc2)cc1Br`, the cell number change was -6.74%.

In the case of `COc1ccc(C)cc1NC(=O)NC1CCCCCCC1`, the cell number change was -2.31%. With `COc1ccc(-c2cc(C3CCN(Cc4cccc(C(F)(F)F)c4)CC3)[nH]n2)cc1`, the cell number change was -75.6%. For the compound `CCc1nc(SCc2cccnc2)c2c(=O)n(C)c(=O)n(C)c2n1`, the cell number change was found to be 132%. Further, the AC50 under setting [2] is 2.91 µM [rising, partial curve]. Besides, the AC50 under setting [1] was 3.66 µM [rising, partial curve].

Take `Cc1ccc(C)c(CN2CCSCC2)c1`: the AC50 under setting [2] was 6.51 µM [falling, single point]. Turning to `O=C(CCN1CCCCCC1)Nc1cccc(F)c1`, the AC50 under setting [1] is 16.4 µM [falling, partial curve]. Regarding `Cc1ccc(NC(=O)C2CCCN2C(=O)NC2CCCCC2)cc1C` (stereo unspecified), the cell number change was -5.93%.

Take `Cc1onc(-c2ccccc2)c1C(=O)N/N=C/C(Br)=C/c1ccccc1`: the cell number change stood at 35.9%. In addition, under setting [2], the AC50 was 14.6 µM [rising, single point].

Turning to `Cc1noc(C)c1COC(=O)/C=C/c1ccccc1Cl`, the cell number change was -27.1%. Under setting [1], the AC50 is 29.1 µM [falling, single point].

As for `C=CCC1NS(=O)(=O)OCC1NC(=O)OCC(Cl)(Cl)Cl` (stereo unspecified), the cell number change is 23.6%. Take `CCN(CC)CCCN1CC(=O)N2[C@@H](Cc3c([nH]c4ccccc34)C2(C)C)C1=O`: the cell number change is 8.5%. Moreover, under setting [1], the AC50 is 6.51 µM [rising, single point]. As to `C[C@H](NC(=O)c1nc[nH]c1C(=O)NC1CCN(C(=O)OC(C)(C)C)CC1)C(=O)OCc1ccccc1`, the cell number change is -31.3%. Further, the AC50 under setting [2] was 29.1 µM [falling, single point]. For `CCC(=O)Nc1ccccc1C(=O)OCC(=O)c1cccc2ccccc12`, the cell number change is -8.07%. On to `Cc1nnc(SCc2cc(=O)[nH]c(/N=C(\N)Nc3ccccc3)n2)s1`, for which the cell number change stood at 8.54%. Further, the AC50 under setting [2] was 2.06 µM [rising, partial curve, poor fit]. Under setting [1], the AC50 was 20.6 µM [rising, single point]. `O=C(COc1ccccc1F)OCC(=O)N1CCc2ccccc21`: the cell number change was -19%. Besides, the AC50 under setting [2] was 3.26 µM [falling, single point].

`CN1CCN(CCC(=O)Nc2ccc(C3CCCC3)cc2)CC1`: the cell number change is -6.43%. The AC50 under setting [2] is 2.06 µM [rising, partial curve, poor fit]. In the case of `O=C(NCCCN1CCOCC1)C(=O)NCc1ccco1`, the cell number change amounted to 17.3%. Moreover, the AC50 under setting [1] is 0.651 µM [falling, single point].

On to `COc1ccc(/C=C/C(=O)OCC(=O)c2c(N)n(C)c(=O)n(C)c2=O)c(OC)c1`, for which the cell number change is -11.1%. On to `Fc1ccccc1NC(=S)NCc1ccccc1`, for which the cell number change was 8.78%. Moreover, under setting [1], the AC50 was 29.1 µM [falling, single point].

For `O=Nc1c(-c2c(O)[nH]c3cc(Br)ccc23)[nH]c2ccccc12`, the cell number change was -33.9%. Further, under setting [2], the AC50 is 2.91 µM [falling, full curve]. For the same compound, under setting [1], the AC50 is 25.9 µM [falling, single point].

As for `O=c1c2ccccc2nc(CSc2nnnn2-c2ccccc2)n1-c1cccc(C(F)(F)F)c1`, the cell number change was found to be 68.8%. Moreover, the AC50 under setting [2] was 0.461 µM [rising, full curve]. Also, under setting [1], the AC50 is 0.00517 µM [rising, full curve, poor fit]. Consider `Brc1cccc(-c2cnc3n2CCCCC3)c1`, for which the cell number change was -12.4%. With `COc1ccc(CCNC(=O)c2nnc(Cc3ccc(Cl)cc3)o2)cc1OC`, the cell number change was -12.3%. Also, the AC50 under setting [1] was 29.1 µM [rising, single point]. On to `Nn1c(COc2cccc(Br)c2)nnc1SCC(=O)N1CCc2ccccc2C1`, for which the cell number change is -6.15%. Further, under setting [1], the AC50 was 0.731 µM [rising, full curve, poor fit]. On to `Cc1ccc(N(C(=O)CS(=O)CC(=O)Nc2ccc(F)cc2)C(C)C(=O)NC(C)(C)C)cc1` (stereo unspecified), for which the cell number change amounted to 25.7%. Further, the AC50 under setting [2] was 6.51 µM [rising, single point].

Consider `COc1ccc(NC(=O)c2sc3nc(C)cc(C)c3c2N)cc1`, for which the cell number change is -19.2%. Besides, the AC50 under setting [1] was 14.6 µM [falling, partial curve, poor fit]. Consider `COC(=O)c1c(NC(=O)C2CC=CCC2C(=O)O)sc(C(N)=O)c1C` (stereo unspecified), for which the cell number change is -0.165%. For the same compound, the AC50 under setting [1] is 0.0103 µM [rising, full curve, poor fit]. Consider `CSc1nc2c(c(=O)[nH]1)C(c1ccc(Cl)cc1)CC(=O)N2` (stereo unspecified), for which the cell number change is -22.8%.

As for `Cc1ccc(C(=O)NCC(=O)OCC(=O)Nc2ccc(Cl)cn2)cc1`, under setting [1], the AC50 was 3.26 µM [falling, full curve]. Consider `COC(=O)c1cc(NC(=O)c2cccnc2)ccc1N1CCOCC1`, for which the cell number change came out at 28.8%. Consider `COC(=O)c1ccc(C(=O)NC2CCCc3c2cnn3-c2cc(F)cc(F)c2)nc1` (stereo unspecified), for which the cell number change was -70.9%. The AC50 under setting [2] is 0.326 µM [falling, full curve]. Further, the AC50 under setting [1] was 0.231 µM [falling, full curve]. `CCCCCCCCOC(=O)/C=C/c1c(C)[nH]c(=O)[nH]c1=O`: the cell number change is -38.4%. Besides, the AC50 under setting [2] was 0.116 µM [falling, full curve, poor fit]. Also, the AC50 under setting [1] was 0.116 µM [falling, full curve, poor fit]. On to `O=C(CSC(=S)N1CCOCC1)N1N=CCC1c1ccccc1` (stereo unspecified), for which the cell number change is -40.7%. For the same compound, the AC50 under setting [2] is 3.26 µM [falling, full curve]. Also, the AC50 under setting [1] was 3.66 µM [falling, full curve]. Take `Cn1cc(CN2CCCC(C(=O)Nc3ccc(-c4cccc(F)c4)cc3)C2)cn1` (stereo unspecified): under setting [1], the AC50 is 6.51 µM [rising, single point]. In the case of `COC(=O)c1[nH]c2cccc(OC)c2c1NC(=O)C(C)N1CCC(C)CC1` (stereo unspecified), the cell number change came to 20.2%. Under setting [2], the AC50 is 0.461 µM [falling, single point].

`Clc1ccc(CSc2nc3ccncc3[nH]2)cc1`: the cell number change was -6.98%. Consider `CC(C)NC(=O)c1ccccc1-c1ccccc1`, for which the cell number change is -16.9%. Also, the AC50 under setting [2] was 0.058 µM [falling, full curve, poor fit]. The AC50 under setting [1] is 3.66 µM [falling, partial curve, poor fit].

For `Cc1ccc(S(=O)(=O)N2CC(C(=O)O)=CC[C@H]2c2ccc(Cl)cc2)cc1`, the cell number change was found to be 16.2%. Further, the AC50 under setting [2] is 0.13 µM [rising, full curve, poor fit]. For the same compound, the AC50 under setting [1] is 10.3 µM [falling, partial curve, poor fit]. Take `COc1ccccc1C1(O)CCN(C(=O)c2cccs2)CC1`: the cell number change was -6.59%. Take `Cc1nc(C)c(C(=O)NCc2ccc(Cl)cc2)o1`: the cell number change is -25.5%.

With `Cc1cc2nsnc2c(S(=O)(=O)N2CCN(C)CC2)c1C`, the cell number change turned out to be 2.86%. In addition, under setting [2], the AC50 is 1.3 µM [rising, full curve].

For the compound `Cc1noc(C)c1C(=O)NCc1ccccc1F`, the cell number change amounted to 18.3%.

With `CCOCc1cnc(C)nc1NCC(=O)c1c(C)[nH]c2ccccc12`, the cell number change is 34.9%. The AC50 under setting [2] is 25.9 µM [rising, single point]. Further, under setting [1], the AC50 was 25.9 µM [rising, single point]. As for `CCn1c(=O)c2cc(C(=O)N3CCN(C(=O)c4ccco4)CC3)sc2c2ccccc21`, the cell number change is -49.4%. Under setting [2], the AC50 was 23.1 µM [falling, partial curve]. The AC50 under setting [1] was 32.6 µM [falling, single point]. Take `COC(=O)c1ccc(-c2nc3ccccc3o2)cc1`: the cell number change was found to be 7.56%. For the compound `Cc1ccc(CNc2ncnc3cc(Cl)ccc23)cc1`, the cell number change is -23%. In addition, the AC50 under setting [1] was 32.6 µM [falling, single point].

In the case of `COc1ccc(C(=O)NNC(=S)Nc2ccccc2)cc1`, the cell number change stood at 44.3%. As for `CC(C)C(NC(=O)c1c(F)cccc1F)C(=O)N1CCN(c2ccccc2F)CC1` (stereo unspecified), the cell number change came to 10.3%. As for `O=C(Nc1ccccc1Cl)Nc1ccnn1C1CCN(C(=O)CCN2CCCO2)CC1`, the AC50 under setting [1] was 2.91 µM [falling, single point]. Take `CC(=O)Nc1ccc(N(CC(=O)NC2CCCCC2)C(=O)Cn2nnc(-c3ccccc3)n2)cc1`: the cell number change was 17.4%. The AC50 under setting [1] was 6.51 µM [rising, single point]. Turning to `CC(C)c1ccc(O)c(NC(=O)c2cncc(Br)c2)c1`, the AC50 under setting [2] is 0.58 µM [rising, single point]. As for `Nc1nnc(-c2cn(-c3ccccc3)nc2-c2ccccc2)o1`, the cell number change turned out to be 67.4%. Moreover, the AC50 under setting [2] is 0.731 µM [rising, full curve, poor fit]. Moreover, the AC50 under setting [1] was 0.731 µM [rising, full curve]. `Cc1cccc(NC(=O)N(Cc2cc3cc(C)cc(C)c3[nH]c2=O)CC2COCCO2)c1` (stereo unspecified): the cell number change came to 45.4%. Also, the AC50 under setting [2] is 0.731 µM [rising, full curve]. Besides, the AC50 under setting [1] is 0.651 µM [rising, full curve]. As for `NC(=O)c1ccc(NC(=O)c2ccc3c(c2)CCN3S(=O)(=O)c2ccccc2)cc1`, the cell number change is -40.7%. Further, the AC50 under setting [2] is 18.4 µM [falling, single point]. Turning to `CC(=O)c1cnc(Nc2ccc(C)cc2)s1`, the cell number change is -4.41%. For the same compound, the AC50 under setting [2] is 0.082 µM [rising, full curve]. Also, under setting [1], the AC50 was 0.731 µM [rising, full curve, poor fit]. As to `O=C(COc1ccc(Cl)cc1)NCCCNC(=O)c1ccccn1`, the AC50 under setting [2] was 0.58 µM [rising, full curve, poor fit].

Consider `COc1cc(OC)cc(C(=O)NC(C(=O)NNC(=O)c2cc(Cl)ccc2OC)C(C)C)c1` (stereo unspecified), for which the cell number change is -4.83%. For the same compound, under setting [1], the AC50 is 29.1 µM [rising, single point]. As for `FC(F)(F)c1ccc(Sc2nnc(-c3cccs3)n2CC2CCCO2)nc1` (stereo unspecified), the AC50 is, setting by setting: under setting [2], 6.51 µM [rising, single point]; under setting [1], 2.91 µM [rising, partial curve].
